# Data as given in publication PMC8384837.
# Positions count from the first letter of the chain named. This is one part of the list. At the low end of the ranking, values are background and their order means little.
# Key:
# Conditions in all cases: yeast three-hybrid, YBZ-1, SC-Leu-His + 0.5 mM 3-AT, 4 days
# [1] = molecular target: T1, PUM1 PUF domain R4-DFV N971D + H972F + Q975V (UniProt Q14671)
# T1 sequence: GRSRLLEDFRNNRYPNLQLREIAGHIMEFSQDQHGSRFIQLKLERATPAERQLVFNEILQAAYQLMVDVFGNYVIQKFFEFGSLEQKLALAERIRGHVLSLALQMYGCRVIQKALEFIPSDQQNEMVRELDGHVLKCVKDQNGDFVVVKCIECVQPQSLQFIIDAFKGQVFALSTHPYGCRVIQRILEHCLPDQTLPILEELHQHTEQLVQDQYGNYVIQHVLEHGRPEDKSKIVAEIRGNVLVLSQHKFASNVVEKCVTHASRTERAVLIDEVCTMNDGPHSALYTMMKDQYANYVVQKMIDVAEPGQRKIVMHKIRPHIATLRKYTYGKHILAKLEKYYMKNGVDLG
# [2] = molecular target: T2, PUM1 PUF domain R4-DHC N971D + Q975C (UniProt Q14671)
# T2 sequence: T1 sequence with F145H, V148C
# [3] = molecular target: T3, PUM1 PUF domain R4-DHG N971D + Q975G (UniProt Q14671)
# T3 sequence: T1 sequence with F145H, V148G
# [4] = molecular target: T4, PUM1 PUF domain R4-DHL N971D + Q975L (UniProt Q14671)
# T4 sequence: T1 sequence with F145H, V148L
# [5] = molecular target: T5, PUM1 PUF domain R4-DHQ N971D (UniProt Q14671)
# T5 sequence: T1 sequence with F145H, V148Q
# [6] = molecular target: T6, PUM1 PUF domain R4-DHR N971D + Q975R (UniProt Q14671)
# T6 sequence: T1 sequence with F145H, V148R
# [7] = molecular target: T7, PUM1 PUF domain R4-DHS N971D + Q975S (UniProt Q14671)
# T7 sequence: T1 sequence with F145H, V148S
# [8] = molecular target: T8, PUM1 PUF domain R4-DHT N971D + Q975T (UniProt Q14671)
# T8 sequence: T1 sequence with F145H, V148T
# [9] = molecular target: T9, PUM1 PUF domain R4-DHV N971D + Q975V (UniProt Q14671)
# T9 sequence: T1 sequence with F145H
# [10] = molecular target: T10, PUM1 PUF domain R4-DRC N971D + H972R + Q975C (UniProt Q14671)
# T10 sequence: T1 sequence with F145R, V148C
# [11] = molecular target: T11, PUM1 PUF domain R4-DRG N971D + H972R + Q975G (UniProt Q14671)
# T11 sequence: T1 sequence with F145R, V148G
# [12] = molecular target: T12, PUM1 PUF domain R4-DRI N971D + H972R + Q975I (UniProt Q14671)
# T12 sequence: T1 sequence with F145R, V148I
# [13] = molecular target: T13, PUM1 PUF domain R4-DWA N971D + H972W + Q975A (UniProt Q14671)
# T13 sequence: T1 sequence with F145W, V148A
# [14] = molecular target: T14, PUM1 PUF domain R4-DWG N971D + H972W + Q975G (UniProt Q14671)
# T14 sequence: T1 sequence with F145W, V148G
# [15] = molecular target: T15, PUM1 PUF domain R4-DWI N971D + H972W + Q975I (UniProt Q14671)
# T15 sequence: T1 sequence with F145W, V148I
# [16] = molecular target: T16, PUM1 PUF domain R4-DWL N971D + H972W + Q975L (UniProt Q14671)
# T16 sequence: T1 sequence with F145W, V148L
# [17] = molecular target: T17, PUM1 PUF domain R4-DWM N971D + H972W + Q975M (UniProt Q14671)
# T17 sequence: T1 sequence with F145W, V148M
# [18] = molecular target: T18, PUM1 PUF domain R4-DWR N971D + H972W + Q975R (UniProt Q14671)
# T18 sequence: T1 sequence with F145W, V148R
# [19] = molecular target: T19, PUM1 PUF domain R4-DWS N971D + H972W + Q975S (UniProt Q14671)
# T19 sequence: T1 sequence with F145W, V148S
# [20] = molecular target: T20, PUM1 PUF domain R4-DWV N971D + H972W + Q975V (UniProt Q14671)
# T20 sequence: T1 sequence with F145W
# [21] = molecular target: T21, PUM1 PUF domain R4-DYA N971D + H972Y + Q975A (UniProt Q14671)
# T21 sequence: T1 sequence with F145Y, V148A
# [22] = molecular target: T22, PUM1 PUF domain R4-DYG N971D + H972Y + Q975G (UniProt Q14671)
# T22 sequence: T1 sequence with F145Y, V148G
# [23] = molecular target: T23, PUM1 PUF domain R4-DYN N971D + H972Y + Q975N (UniProt Q14671)
# T23 sequence: T1 sequence with F145Y, V148N
# [24] = molecular target: T24, PUM1 PUF domain R4-DYR N971D + H972Y + Q975R (UniProt Q14671)
# T24 sequence: T1 sequence with F145Y, V148R
# [25] = molecular target: T25, PUM1 PUF domain R4-DYV N971D + H972Y + Q975V (UniProt Q14671)
# T25 sequence: T1 sequence with F145Y
# [26] = molecular target: T26, PUM1 PUF domain R4-EFD N971E + H972F + Q975D (UniProt Q14671)
# T26 sequence: T1 sequence with D144E, V148D
# [27] = molecular target: T27, PUM1 PUF domain R4-EFG N971E + H972F + Q975G (UniProt Q14671)
# T27 sequence: T1 sequence with D144E, V148G
# [28] = molecular target: T28, PUM1 PUF domain R4-EHD N971E + Q975D (UniProt Q14671)
# T28 sequence: T1 sequence with D144E, F145H, V148D
# [29] = molecular target: T29, PUM1 PUF domain R4-EHG N971E + Q975G (UniProt Q14671)
# T29 sequence: T1 sequence with D144E, F145H, V148G
# [30] = molecular target: T30, PUM1 PUF domain R4-EPG N971E + H972P + Q975G (UniProt Q14671)
# T30 sequence: T1 sequence with D144E, F145P, V148G
sequence,measurement,setting,value
GGCUAGAACUAGUGGAUCCCCCGGCGCCCGGCGGCUCGAGCCCGGGUAAGUGUAGAUAGUCUGCAUGCCGCCGGGCGCCAUGCCUGCAGGUCGACUCUAGAAAACAUG,binding signal (log2 enrichment (interaction score)),[1],< -7.56
same,binding signal (log2 enrichment (interaction score)),[2],< -5.62
same,binding signal (log2 enrichment (interaction score)),[3],< -6.19
same,binding signal (log2 enrichment (interaction score)),[4],< -5.43
same,binding signal (log2 enrichment (interaction score)),[5],-2.77
same,binding signal (log2 enrichment (interaction score)),[6],< -6.64
same,binding signal (log2 enrichment (interaction score)),[7],< -6.61
same,binding signal (log2 enrichment (interaction score)),[8],< -6.75
same,binding signal (log2 enrichment (interaction score)),[9],< -7.26
same,binding signal (log2 enrichment (interaction score)),[10],< -7.23
same,binding signal (log2 enrichment (interaction score)),[11],< -8.85
same,binding signal (log2 enrichment (interaction score)),[12],< -5.39
same,binding signal (log2 enrichment (interaction score)),[13],< -5.33
same,binding signal (log2 enrichment (interaction score)),[14],< -6.87
same,binding signal (log2 enrichment (interaction score)),[15],< -6.97
same,binding signal (log2 enrichment (interaction score)),[16],< -5.67
same,binding signal (log2 enrichment (interaction score)),[17],< -5.62
same,binding signal (log2 enrichment (interaction score)),[18],< -7.33
same,binding signal (log2 enrichment (interaction score)),[19],< -6.32
same,binding signal (log2 enrichment (interaction score)),[20],< -6.81
same,binding signal (log2 enrichment (interaction score)),[21],< -5.33
same,binding signal (log2 enrichment (interaction score)),[22],< -6.77
same,binding signal (log2 enrichment (interaction score)),[23],< -5.75
same,binding signal (log2 enrichment (interaction score)),[24],< -5.64
same,binding signal (log2 enrichment (interaction score)),[25],< -7.03
same,binding signal (log2 enrichment (interaction score)),[26],< -6.96
same,binding signal (log2 enrichment (interaction score)),[27],< -7.34
same,binding signal (log2 enrichment (interaction score)),[28],< -6.13
same,binding signal (log2 enrichment (interaction score)),[29],< -6.43
same,binding signal (log2 enrichment (interaction score)),[30],< -6.53

# Two entries drawn at random from the list so far, as already listed:
sequence,measurement,setting,value
GGCUAGAACUAGUGGAUCCCCCGGCGCCCGGCGGCUCGAGCCCGGGUAAGUGUAGAUAGUCUGCAUGCCGCCGGGCGCCAUGCCUGCAGGUCGACUCUAGAAAACAUG,binding signal (log2 enrichment (interaction score)),[6],< -6.64
same,binding signal (log2 enrichment (interaction score)),[7],< -6.61
